## Results of single-concentration screens

Measurements from “University of Dundee, Small-Polar-MMV Screening Library” (2021), ChEMBL document CHEMBL3988442.

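Growth of Mycobacterium tuberculosis over 3 days (7H9 medium with glucose and tyloxapol); the read-out is not stated. Concentration: 50 µM. The record gives no direction; compounds that gave an IC50 in retests scored well above the rest, so higher reads as more growth inhibition. Size under these conditions: about 69,000 compounds, about 760 of them at 50% or above in at least one test.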

Values are the deposited “Percent Effect”, in %. The controls that fix the scale are not given in the record; negative values are as filed. The compounds are a random part of those screened. Two or more numbers in one place are separate tests of the same structure; such repeats can differ widely.

compound: Cc1noc(C2CCCN(C(=O)c3cc(-c4ccccc4)on3)C2)n1 (stereo not given)
percent effect: -4.535

compound: CCn1c(C)nnc1CN(C)C1CCN(Cc2c(C)noc2C)C1 (stereo not given)
percent effect: -1.664 & 1.678

compound: [H][C@]12CCCCN1CCC[C@H]2CCC(=O)NCCc1nc(O)cc(O)n1
percent effect: -14.23

compound: Cc1nc[nH]c1CN(Cc1ccc(F)cc1)C1CC(C)(C)NC(C)(C)C1
percent effect: 7.393

compound: Cc1cnc(-c2nc(C3CCCN(Cc4cccs4)C3)no2)cn1 (stereo not given)
percent effect: -49.71

compound: CC(C)c1nnc2n1CCN(C(=O)c1ccc(OCC(N)=O)cc1)C2
percent effect: -0.4708

compound: Cn1nccc1C(=O)Nc1cc(C(F)(F)F)c[nH]c1=O
percent effect: 7.348

compound: O=C(Cc1ccsc1)N1CCC(n2nc(-c3ccco3)ccc2=O)CC1
percent effect: 1.766

compound: CCC(O)CN1CCN(C(=O)c2cccn2Cc2cccs2)CC1 (stereo not given)
percent effect: -16.26

compound: COc1ccc(CNCCc2cc(F)cc3c2OCOC3)cc1O
percent effect: 7.227 & -4.412

compound: CC(C)(C)c1nnc(CN2CCC(c3cc4ccccc4[nH]3)CC2)o1
percent effect: 4.336

compound: O=C(NCCCN1CCN(c2ncccn2)CC1)NCC1CCOC1 (stereo not given)
percent effect: 16

compound: CCOC(=O)N1CCC2(CCNC2)C1.Cl (stereo not given)
percent effect: -9.741

compound: CCCc1nc(C)cc(N2CCC3(CCC(=O)N(CC4CC4)C3)CC2)n1
percent effect: 10.2

compound: COc1c(CNC(c2ccccc2)c2ccc(F)cc2)c(C)nn1C (stereo not given)
percent effect: -5.52

compound: CC(c1ccc(Cl)cc1)N1CCN(CCNS(C)(=O)=O)CC1 (stereo not given)
percent effect: 3.982

compound: CCNC(=O)CCC(=O)NCC1(O)CCC(C(C)(C)C)CC1 (stereo not given)
percent effect: 19.48

compound: Cc1ccc(C(=O)N2CCCC(c3cc(C(F)(F)F)[nH]n3)C2)o1 (stereo not given)
percent effect: 47.49 & -25.46

compound: O=c1[nH]c2nc(NCC3CCCO3)ncc2c(=O)n1-c1cccc(F)c1 (stereo not given)
percent effect: 11.66

compound: [H][C@@]12CCN(C(=O)c3ccco3)[C@]1([H])CN(S(C)(=O)=O)C2
percent effect: 25.07

compound: Cc1cc(NC(=O)CCN2CCn3c(nnc3C3CC3)C2)no1
percent effect: 17.54

compound: O=C(O)C(F)(F)F.O=C1CCC2(CCCN(C(=O)Cc3cccnc3)C2)N1 (stereo not given)
percent effect: -5.69

compound: O=C(Nc1ccc2c(c1)OCCO2)c1ccc(=O)[nH]n1
percent effect: 6.586

compound: CCCS(=O)(=O)N1CCN(c2ccnc(N3CCCC3)n2)CC1
percent effect: 4.021

compound: CCS(=O)(=O)c1ccccc1N1CCC(NC(=O)C2CC2)CC1
percent effect: -0.1844 & -18

compound: COCC(=O)NCc1ccc(-c2ccccc2C(=O)O)cn1
percent effect: -14.43

compound: Cc1ccc(CN2Cc3c(C(=O)N4CCCC4)nn(C)c3C2)s1.O=C(O)C(F)(F)F
percent effect: -16.56

compound: [H][C@@]12CN(Cc3scnc3C)C[C@@H](C(=O)NCC3CC3)[C@]1([H])CCO2
percent effect: 8.396

compound: Cc1oc(C(=O)O)cc1S(=O)(=O)Nc1cccc(-n2nccc2C)c1
percent effect: 6.858

compound: O=C(NCCNc1ncccn1)C1CCN(c2ncccn2)CC1
percent effect: 21.15

compound: Cc1ccc(-c2cc(N)c(=O)n(CC(=O)NCC3CCCCC3)n2)s1
percent effect: -16.98

compound: CN(C)c1ccc(C(=O)N2CCC(c3n[nH]c(C4CC4)n3)CC2)cc1
percent effect: 8.039

compound: Cc1cc(C)n(Cc2ccc(-c3noc(C(=O)NCCO)n3)cc2)n1
percent effect: 24.61

compound: c1csc(N2CCN(c3ncnc4sccc34)CC2)n1
percent effect: 0.2675

compound: Cc1ccc(NC(=O)Cn2ncc(SCC(N)=O)c(Cl)c2=O)cc1
percent effect: -11.62

compound: Cc1c(Cl)cccc1S(=O)(=O)N1CCC2(CC1)OCCS2
percent effect: -2.988 & 26.91

compound: COC[C@@H]1CCC[C@]12CN(Cc1cccc(C)n1)CCO2.O=C(O)C(F)(F)F.O=C(O)C(F)(F)F
percent effect: -3.031

compound: CCN(CC)C(=O)[C@@H]1C[C@@H](n2cc(-c3ccccn3)nn2)CN1
percent effect: -7.692

compound: CS(=O)(=O)NCC1CCCN(C(=O)Nc2cccnc2N2CCCC2)C1 (stereo not given)
percent effect: -35.14 & -11.63

compound: CC1CCCN(C(=O)C2CCN(c3snc4ccccc34)CC2)C1 (stereo not given)
percent effect: 31.12

compound: O=C(N1CCC(Oc2ccncc2)C1)C1(c2cccc(F)c2)CC1 (stereo not given)
percent effect: -5.734

compound: COC(=O)c1cccc(S(=O)(=O)NCC(c2ccco2)N2CCCC2)c1 (stereo not given)
percent effect: 28.09

compound: CCCN1CCC(CC(=O)N(C)C(C)c2cncs2)CC1 (stereo not given)
percent effect: -15.82

compound: Cc1nc(CN2C(=O)COC3(CCN(CC4CC4)CC3)C2C)cs1.O=C(O)C(F)(F)F (stereo not given)
percent effect: -14.98

compound: COC(=O)c1sccc1S(=O)(=O)NCC1(O)CCOc2ccccc21 (stereo not given)
percent effect: -13.56 & -4.267

compound: Cc1nnc(C(C)N(C)Cc2c(C)nn(-c3ccccc3)c2C)o1 (stereo not given)
percent effect: 12.61

compound: CCN(Cc1ccccc1)C(=O)CN1CCCCC1Cn1cncn1 (stereo not given)
percent effect: -21.6 & 8.345

compound: COc1ncccc1C(=O)NCCn1nc(C)ccc1=O
percent effect: 13.23

compound: [H][C@@]12COC[C@]1(CNS(C)(=O)=O)CN(C(=O)c1cnccn1)C2
percent effect: -9.362 & -12.08

compound: Cc1nc(COc2ccc(S(=O)(=O)N(C)C)cc2)sc1C
percent effect: 6.297

compound: COc1ncccc1CNCc1c(C(C)C)nn(C)c1Cl
percent effect: 10.34

compound: Cc1cc(N2CCSCC2)ccc1NC(=O)N(CCO)C1CC1
percent effect: -22.66 & 1.541

compound: COc1cccc(OC)c1CNC(Cc1ccsc1)c1ccc(C)cn1 (stereo not given)
percent effect: 71.05

compound: CC(C)Oc1cccc(F)c1C(C(=O)O)N1CCCN(C)CC1 (stereo not given)
percent effect: 1.474

7 of the entries, repeated:

compound,percent effect
O=C(N1CCC(Oc2ccncc2)C1)C1(c2cccc(F)c2)CC1 (stereo not given),-5.734
COc1cccc(OC)c1CNC(Cc1ccsc1)c1ccc(C)cn1 (stereo not given),71.05
Cc1ccc(NC(=O)Cn2ncc(SCC(N)=O)c(Cl)c2=O)cc1,-11.62
CCCS(=O)(=O)N1CCN(c2ccnc(N3CCCC3)n2)CC1,4.021
CCCc1nc(C)cc(N2CCC3(CCC(=O)N(CC4CC4)C3)CC2)n1,10.2
CCCN1CCC(CC(=O)N(C)C(C)c2cncs2)CC1 (stereo not given),-15.82
COc1ncccc1C(=O)NCCn1nc(C)ccc1=O,13.23